At least one compound was matched to its structure with a doubt left.
System: HCT116 cells
Test: MTT cell growth assay
Format: cell-based, human
Settings: sections 'high concentrations (~50 μM)' and 'active in vitro that decreased cell growth'; same figures given in μM elsewhere in Table 6; read-out: IC50 HCT116 (head without unit)
Protocol: The activity of hits from the initial screen was further validated using the MTT assay. Briefly, MCF10A and HCT116 cells were seeded in 96 well plates at 300 and 1200 cells per well, respectively, and allowed to adhere overnight. The following day, serial dilutions of compounds in media were added to the cells in a final volume 200 μl. After incubation for 5 days, MTT reagent (3-(4,5-dimthylthiazol-2-yl)-2,5-diphenyltatrazolium) was added and incubation was continued for 4 h. Formazan crystals generated by reduction of the MTT reagent in mitochondria were solubilized with isopropanol prior to the measurement of absorbance at 560 nm wavelength in a plate reader.
After incubation for 5 days, cell growth was measured by the MTT assay (16).

SMILES: CCc1ccc(NS(=O)(=O)c2ccc(Cl)s2)cc1 [Compound 105]
- IC50: 50 µM

Reference: patent publication US9757375B2, “Compounds that inhibit human DNA ligases and methods of treating cancer” (University of Maryland, Baltimore, priority 2007, dated 2017)
